Data as given in PMC12778051.
Changes are numbered by the printed parent chain. No constants are given. Whether binding was seen depends on the method and setting. Binding seen in cells or lysates may run through a third protein. For some of these results: A result given as binding can be weak or reduced; the word gives no strength. Tags and fused reporters may be left off the sequences shown. Values belong to the molecule of their own block, whether it stands above or below them.

Columns and labels:
[1] = target: T1, Myc-LUBEL^1-872 (Drosophila melanogaster) (UniProt Q8IPJ3); assay: co-IP; Myc-LUBEL^1-872 (wild-type or R157A) and Amph isoform C-HA coexpressed in S2 cells; anti-Myc IP, immunoblot with anti-Myc and anti-HA
T1 sequence: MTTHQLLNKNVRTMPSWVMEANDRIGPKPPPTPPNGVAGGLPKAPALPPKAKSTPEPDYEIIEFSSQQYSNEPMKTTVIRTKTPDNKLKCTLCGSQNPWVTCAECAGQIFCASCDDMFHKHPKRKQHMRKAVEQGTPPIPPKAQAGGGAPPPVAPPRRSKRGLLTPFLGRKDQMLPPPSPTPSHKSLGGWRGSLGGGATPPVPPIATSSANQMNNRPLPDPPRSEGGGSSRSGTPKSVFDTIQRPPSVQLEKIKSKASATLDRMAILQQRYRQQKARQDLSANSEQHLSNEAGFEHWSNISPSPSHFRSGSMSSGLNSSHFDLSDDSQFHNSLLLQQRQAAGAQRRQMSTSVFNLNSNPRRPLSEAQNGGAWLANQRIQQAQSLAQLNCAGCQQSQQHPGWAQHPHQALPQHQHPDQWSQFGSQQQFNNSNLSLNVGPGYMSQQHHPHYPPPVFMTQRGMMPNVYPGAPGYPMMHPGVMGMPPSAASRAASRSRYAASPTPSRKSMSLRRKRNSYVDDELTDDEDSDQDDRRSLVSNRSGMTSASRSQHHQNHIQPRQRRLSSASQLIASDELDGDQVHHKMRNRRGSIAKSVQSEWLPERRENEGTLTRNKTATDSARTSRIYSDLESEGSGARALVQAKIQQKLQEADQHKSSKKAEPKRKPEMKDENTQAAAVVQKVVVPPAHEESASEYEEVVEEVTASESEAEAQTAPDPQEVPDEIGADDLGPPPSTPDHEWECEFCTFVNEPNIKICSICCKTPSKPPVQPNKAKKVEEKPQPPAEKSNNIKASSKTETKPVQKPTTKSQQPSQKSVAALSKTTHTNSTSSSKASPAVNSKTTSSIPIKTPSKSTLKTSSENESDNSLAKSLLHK

[2] = target: T2, Myc-LUBEL^1-872 R157A (Drosophila melanogaster) (UniProt Q8IPJ3); assay: as above
T2 sequence: T1 sequence with R157A

[3] = target: GST-Amph BAR domain (Drosophila melanogaster); assay: pull-down; GST-fused Amph fragments on glutathione agarose incubated with lysate for 90 min at 4°C; lysis buffer 1% NP-40, 1 mM EDTA, 20 mM tris-HCl pH 7.4, 150 mM NaCl; only the target purified
[4] = target: GST-Amph SH3 domain (Drosophila melanogaster); assay: as above

binding [1]: binds
binding [2]: no binding
Molecule: Amph isoform C-HA (Drosophila melanogaster)

binding [3]: no binding
binding [4]: binds
B1: LUBEL^1-872 (as used in the GST pull-down) (domain or fragment, UniProt Q8IPJ3 1-872)
chain: T1 sequence
